In publication PMC10896376:
Results are given in words; binding and its absence hold for the method and conditions named. In cells and extracts the contact can be indirect. These calls come from enrichment with a bait or labelling near it, and not all partners need be listed.

Sequences of proteins named here, by UniProt entry; tags and fusion partners are left off. Residues count along the entry.
UniProt P07237, residues 18-508: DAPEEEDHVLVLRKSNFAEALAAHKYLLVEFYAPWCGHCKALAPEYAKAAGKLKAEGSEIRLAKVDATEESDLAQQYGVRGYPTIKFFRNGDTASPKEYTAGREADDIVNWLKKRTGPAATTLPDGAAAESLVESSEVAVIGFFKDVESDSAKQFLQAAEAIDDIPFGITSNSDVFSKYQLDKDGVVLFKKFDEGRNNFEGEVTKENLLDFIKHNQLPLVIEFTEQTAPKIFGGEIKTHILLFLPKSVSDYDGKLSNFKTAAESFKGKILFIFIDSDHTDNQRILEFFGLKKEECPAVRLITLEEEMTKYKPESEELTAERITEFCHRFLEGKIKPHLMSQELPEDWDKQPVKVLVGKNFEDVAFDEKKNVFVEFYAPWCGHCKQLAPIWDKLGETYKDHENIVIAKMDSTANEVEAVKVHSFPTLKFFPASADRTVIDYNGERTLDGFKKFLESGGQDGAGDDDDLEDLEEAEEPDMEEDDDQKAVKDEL
UniProt P30101, residues 25-505: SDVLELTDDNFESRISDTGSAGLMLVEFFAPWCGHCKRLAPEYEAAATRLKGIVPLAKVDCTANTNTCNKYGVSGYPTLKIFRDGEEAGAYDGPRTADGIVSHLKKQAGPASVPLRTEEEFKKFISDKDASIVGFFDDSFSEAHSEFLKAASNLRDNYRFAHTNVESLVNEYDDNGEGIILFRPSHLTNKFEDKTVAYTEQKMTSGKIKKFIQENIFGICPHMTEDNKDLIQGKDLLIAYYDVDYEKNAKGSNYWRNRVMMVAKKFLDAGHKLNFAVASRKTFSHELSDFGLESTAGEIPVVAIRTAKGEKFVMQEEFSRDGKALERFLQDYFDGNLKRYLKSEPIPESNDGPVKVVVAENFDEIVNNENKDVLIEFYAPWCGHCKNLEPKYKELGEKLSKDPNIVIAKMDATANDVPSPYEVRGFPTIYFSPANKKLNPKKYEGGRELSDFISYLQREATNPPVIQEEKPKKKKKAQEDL

B1: protein disulfide isomerase family A member 4 (PDIA4) (enzyme, UniProt P13667 21-645)
chain: VAGAEGPDEDSSNRENAIEDEEEEEEEDDDEEEDDLEVKEENGVLVLNDANFDNFVADKDTVLLEFYAPWCGHCKQFAPEYEKIANILKDKDPPIPVAKIDATSASVLASRFDVSGYPTIKILKKGQAVDYEGSRTQEEIVAKVREVSQPDWTPPPEVTLVLTKENFDEVVNDADIILVEFYAPWCGHCKKLAPEYEKAAKELSKRSPPIPLAKVDATAETDLAKRFDVSGYPTLKIFRKGRPYDYNGPREKYGIVDYMIEQSGPPSKEILTLKQVQEFLKDGDDVIIIGVFKGESDPAYQQYQDAANNLREDYKFHHTFSTEIAKFLKVSQGQLVVMQPEKFQSKYEPRSHMMDVQGSTQDSAIKDFVLKYALPLVGHRKVSNDAKRYTRRPLVVVYYSVDFSFDYRAATQFWRSKVLEVAKDFPEYTFAIADEEDYAGEVKDLGLSESGEDVNAAILDESGKKFAMEPEEFDSDTLREFVTAFKKGKLKPVIKSQPVPKNNKGPVKVVVGKTFDSIVMDPKKDVLIEFYAPWCGHCKQLEPVYNSLAKKYKGQKGLVIAKMDATANDVPSDRYKVEGFPTIYFAPSGDKKNPVKFEGGDRDLEHLSKFIEEHATKLSRTKEEL
B2: protein disulfide isomerase family A member 6 (PDIA6) (enzyme, UniProt Q15084 20-440)
chain: LYSSSDDVIELTPSNFNREVIQSDSLWLVEFYAPWCGHCQRLTPEWKKAATALKDVVKVGAVDADKHHSLGGQYGVQGFPTIKIFGSNKNRPEDYQGGRTGEAIVDAALSALRQLVKDRLGGRSGGYSSGKQGRSDSSSKKDVIELTDDSFDKNVLDSEDVWMVEFYAPWCGHCKNLEPEWAAAASEVKEQTKGKVKLAAVDATVNQVLASRYGIRGFPTIKIFQKGESPVDYDGGRTRSDIVSRALDLFSDNAPPPELLEIINEDIAKRTCEEHQLCVVAVLPHILDTGAAGRNSYLEVLLKLADKYKKKMWGWLWTEAGAQSELETALGIGGFGYPAMAAINARKMKFALLKGSFSEQGINEFLRELSFGRGSTAPVGGGAFPTIVEREPWDGRDGELPVEDDIDLSDVELDDLGKDEL

Each molecule was assayed against T1, human Fructosamine-3-kinase (HsFN3K) (human (endogenous in HepG2)) (UniProt Q9H479) (assay: affinity purification with mass spectrometry; IP with rabbit polyclonal anti-FN3K antibody and protein A/G plus agarose beads from WT and FN3K KO HepG2 lysates (50 mM Tris-HCl pH 7.4, 150 mM NaCl, 1% Triton X-100, 1 mM EDTA, 10% glycerol), 4C, 18 h; LC-MS/MS; hits: only in WT or LFQ ratio WT/KO > 1.5).
T1 sequence: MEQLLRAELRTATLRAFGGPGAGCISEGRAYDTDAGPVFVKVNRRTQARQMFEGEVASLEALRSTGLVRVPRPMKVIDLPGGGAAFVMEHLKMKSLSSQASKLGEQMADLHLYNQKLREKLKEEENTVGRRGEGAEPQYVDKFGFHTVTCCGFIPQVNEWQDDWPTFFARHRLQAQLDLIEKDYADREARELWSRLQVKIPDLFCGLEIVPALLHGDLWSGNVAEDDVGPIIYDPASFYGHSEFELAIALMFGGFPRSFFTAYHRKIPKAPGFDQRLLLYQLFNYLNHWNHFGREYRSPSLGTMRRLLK

binding, binds:
prolyl 4-hydroxylase subunit beta (P4HB) (from UniProt P07237 18-508) (enzyme)
protein disulfide isomerase family A member 3 (PDIA3) (from UniProt P30101 25-505) (enzyme)
B1
B2
